Reference: paper PMC8262944
No constants are given. Whether binding was seen depends on the method and setting. Binding seen in cells or lysates may run through a third protein.

Sequences of proteins named here, by UniProt entry; tags and fusion partners are left off.
UniProt Q9UW86: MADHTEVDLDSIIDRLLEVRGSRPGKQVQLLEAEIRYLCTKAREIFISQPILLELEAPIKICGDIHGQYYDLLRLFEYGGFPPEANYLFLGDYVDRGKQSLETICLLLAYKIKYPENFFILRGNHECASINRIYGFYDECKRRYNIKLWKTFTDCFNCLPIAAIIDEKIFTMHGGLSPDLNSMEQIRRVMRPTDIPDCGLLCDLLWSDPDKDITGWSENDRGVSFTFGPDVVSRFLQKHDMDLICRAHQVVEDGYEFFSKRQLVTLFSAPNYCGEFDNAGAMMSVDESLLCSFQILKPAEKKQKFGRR

Target: eIF2γ::V5 (C-terminal V5-tagged eIF2γ, N. crassa NCU02810) (N. crassa) (UniProt Q7SEK4)
Experiment: co-IP; anti-V5 immunoprecipitation from N. crassa cell extracts (WT, eIF2γ::v5, eIF2γ^Δ2-62::v5 strains) on magnetic Dynabeads; Western blots of the IP with anti-P-eIF2α, total eIF2α, V5 and PPP-1 antibodies

binding: no binding
Substance: PPP-1 phosphatase (N. crassa NCU00043, homolog of yeast GLC7) (from UniProt Q9UW86 1-308) (enzyme)
